The other results are listed elsewhere or left out. Repeats are few or missing, and single values can be far off.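 Primary human fetal astrocytes engulfed labelled rat cortical synaptosomes, measured as a red/green ratio corrected for calcein live-cell signal and scaled to the plate median. Toxicity meant calcein falling over 30%; decreased phagocytosis meant below 70% of median above 5 µM.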
Experiments:
[1] = tested on: Human fetal astrocytes; test: loss of total cells relative to no-compound high-control median (toxicity); higher = more toxic (fewer cells); settings: 24 h
[2] = tested on: Human fetal astrocytes; test: synaptosome phagocytosis (pHrodo/calcein intensity ratio) relative to plate median of data wells; higher = more phagocytosis; settings: 24 h

SMILES	loss of total cells ([1]; 1.39 µM)	loss of total cells ([1]; 2.78 µM)	loss of total cells ([1]; 5.56 µM)	loss of total cells ([1]; 11.11 µM)	loss of total cells ([1]; 22.22 µM)	synaptosome phagocytosis ([2]; 1.39 µM)	synaptosome phagocytosis ([2]; 2.78 µM)	synaptosome phagocytosis ([2]; 5.56 µM)	synaptosome phagocytosis ([2]; 11.11 µM)	synaptosome phagocytosis ([2]; 22.22 µM)
Clc1ccc(COC(Cn2ccnc2)c2ccc(Cl)cc2Cl)cc1 (stereo not given)	-0.8%	-0.9%	9.3%	68.8%	98.6%	106%	118%	104%	43.4%	0%
CO[C@H]1/C=C/O[C@@]2(C)Oc3c(C)c(O)c4c(O)c(c5c(nc6cc(C)ccn65)c4c3C2=O)NC(=O)/C(C)=C\C=C\[C@H](C)[C@H](O)[C@@H](C)[C@@H](O)[C@@H](C)[C@H](OC(C)=O)[C@@H]1C	24.9%	-5.2%	9.9%	-7%	20.4%	99.8%	132%	99.5%	128%	115%
O=C1O[C@H]([C@@H](O)CO)C(O)=C1O	-15.3%	-38.9%	5.6%	45.6%	-7.2%	116%	109%	118%	179%	120%
C1CCN2C[C@@H]3C[C@H](CN4CCCC[C@@H]34)[C@H]2C1	-11.5%	-1.1%	-9.5%	5.4%	0%	132%	134%	118%	87.5%	95.5%
CC(C)(CO)[C@@H](O)C(=O)NCCCO	38%	35.9%	-6.1%	22.6%	25.6%	148%	128%	47.1%	57.7%	130%
FC(F)(F)COCC(F)(F)F	-7.6%	6.6%	34.4%	44.5%	-4.1%	79.9%	103%	120%	120%	96.7%
CCC(Cc1c(I)cc(I)c(N)c1I)C(=O)O (stereo not given)	-26.6%	-17.5%	-3.1%	45.6%	10.9%	105%	80.4%	102%	137%	106%
N[C@@H](COCc1ccccc1)C(=O)O	-8.2%	6.1%	-1.5%	2%	-3.7%	113%	101%	92.8%	111%	105%
Cn1nnnc1SCC1=C(C(=O)O)N2C(=O)[C@@H](NC(=O)[C@H](O)c3ccccc3)[C@H]2SC1	1.7%	0.3%	5.7%	3.1%	11.9%	115%	132%	113%	104%	106%
CC(=O)N[C@@H](CC(C)C)C(=O)O	-5.4%	1.1%	2.2%	9.6%	9.1%	89.3%	86%	97.6%	104%	58.6%
CCOC(=O)C1=C(COCCN)NC(C)=C(C(=O)OC)C1c1ccccc1Cl (stereo not given)	-31.5%	-46%	-8.7%	-17.4%	-9%	72.5%	84.4%	112%	69%	103%
CC(=O)OC/C=C(\C)CC/C=C(\C)CC/C=C(\C)CC/C=C(\C)CC/C=C(\C)CC/C=C(\C)CC/C=C(\C)CC/C=C(\C)CCC=C(C)C	5.7%	7.6%	8.8%	10.1%	6.7%	120%	102%	138%	120%	132%
O=C(/C=C/c1ccccc1)c1ccc(O[C@@H]2O[C@H](CO)[C@@H](O)[C@H](O)[C@H]2O)cc1O	-14.1%	5.3%	-3.8%	0.6%	-8.5%	126%	127%	89.3%	99%	98.1%
C=CC[C@@H]1/C=C(\C)C[C@H](C)C[C@H](OC)[C@H]2O[C@@](O)(C(=O)C(=O)N3CCCC[C@H]3C(=O)O[C@H](/C(C)=C/[C@@H]3CC[C@@H](O)[C@H](OC)C3)[C@H](C)[C@@H](O)CC1=O)[C@H](C)C[C@@H]2OC	-37.1%	23.8%	11.8%	36.4%	14%	79.3%	126%	106%	119%	100%
CC(=O)O[C@@H]1CC2C(C)(C)[C@H](O)C=C[C@]2(C)C2CC[C@@]3(C)[C@H](c4ccoc4)OC(=O)C4OC43[C@@]21C (stereo not given in full)	9%	17%	15.2%	16.3%	22.7%	83.1%	111%	156%	111%	111%
CC(C)NCC(O)c1ccc2ccccc2c1 (stereo not given)	17%	11.2%	18.8%	-11.3%	9.1%	114%	88.5%	105%	88.1%	83.5%
O=c1c(O)cc([C@H]2Oc3cc(O)cc(O)c3C[C@H]2O)cc2c([C@H]3Oc4cc(O)cc(O)c4C[C@H]3O)cc(O)c(O)c12	8.3%	2.7%	32.8%	26.5%	22.6%	151%	130%	141%	96.1%	96.6%
CCCC(=O)Nc1ccc(OCC(O)CNC(C)C)c(C(C)=O)c1 (stereo not given)	0%	-5.2%	13.5%	8.6%	18.7%	130%	110%	99.5%	117%	107%
CCCCC1=NC2(CCCC2)C(=O)N1Cc1ccc(-c2ccccc2-c2nnn[nH]2)cc1	21%	-33.3%	-3.7%	-7.5%	5.3%	169%	86.5%	93%	86.8%	105%
CCCCCc1c2c(cc(O)c1C(=O)O)OC(=O)c1c(cc(OC)cc1C(=O)CCCC)O2	0.4%	7.3%	-18.3%	34.2%	10%	107%	120%	71.3%	94.9%	99.7%

Entries of single compounds, looked up by structure. Order of values: loss of total cells ([1]; 1.39 µM)	loss of total cells ([1]; 2.78 µM)	loss of total cells ([1]; 5.56 µM)	loss of total cells ([1]; 11.11 µM)	loss of total cells ([1]; 22.22 µM)	synaptosome phagocytosis ([2]; 1.39 µM)	synaptosome phagocytosis ([2]; 2.78 µM)	synaptosome phagocytosis ([2]; 5.56 µM)	synaptosome phagocytosis ([2]; 11.11 µM)	synaptosome phagocytosis ([2]; 22.22 µM)
`C1CCN2C[C@@H]3C[C@H](CN4CCCC[C@@H]34)[C@H]2C1` reads -11.5%	-1.1%	-9.5%	5.4%	0%	132%	134%	118%	87.5%	95.5%
`CC(C)(CO)[C@@H](O)C(=O)NCCCO` reads 38%	35.9%	-6.1%	22.6%	25.6%	148%	128%	47.1%	57.7%	130%

Reference: the supplement of paper PMC10689618
